Experimental data reported in PubChem BioAssay AID1688 (National Center for Advancing Translational Sciences (NCATS), 2009).
Among all 220,000 compounds or so, about 2,400 (1.1%) were called active. This list was built around the results that the source calls inconclusive (neither active nor inactive); the mix of calls is not that of the screen. Calls come from the whole dose curve; as a rule, active = well fitted inhibition curve with a large enough effect; inconclusive = small, poorly fitted or top-dose-only effect, or effect the other way; inactive = no such curve, though single readings can be large or run the other way. Where the call is inconclusive, the potency comes from a doubtful curve fit.

Assay: qHTS Multiplex Assay to Identify Dual Action Probes in a Cell Model of Huntington: Aggregate Formation (GFP); note: nearly all actives have a fitted effect of over 60% in size
Details: PC12 HttQ103-GFP aggregates, Acumen cytometry, 40 h; activity change, negative = inhibition: at 46.1 µM (top of the series) unless noted
Outline: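 Steps: seed 1500 PC12 HTTQ103-GFP cells/well; add tebufenozide, 100 nM final; add compound titration; add ATPLite reagent; quantify GFP aggregates by laser scanning cytometry.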
% is set by controls: 0 for no effect and ±100 for the full control effect; potency is the fitted concentration of half-maximal effect.

Compound	activity change, negative = inhibition	Potency
COc1ccc(Cl)cc1-n1c(C)cc(C=O)c1C	inactive: -1%	
COc1ccc(CCNc2nc(C)nc3c2oc2ccccc23)cc1OC		inconclusive: 1 µM [inhibitor, partial curve]
Cc1ccc(-c2nnc3n2N=C(c2ccccc2Br)CS3)cc1	inactive: -19.6%	
Cc1nc2ccccn2c1C(=O)CSc1ccccc1		inconclusive: 17.8 µM [inhibitor, single point]
CCCCNC(=O)Cc1coc2ccc3ccccc3c12	inactive: 1.89%	
O=C(CN1C(=O)c2ccccc2S1(=O)=O)c1ccc(O)c(O)c1	inactive: 0% [at 9.22 µM]	
Cc1ccc(N=Cc2ccc(O)cc2O)cc1F		active: 3.16 µM
Cn1c(=O)c2cn3ncccc3c2n(C)c1=O		inconclusive: 35.5 µM [inhibitor, single point]
Clc1ccc2c(c1)C1=C(C(c3ccncc3)O2)C(c2ccc(Br)cc2)n2ncnc2N1 (stereo not given)		active: 12.6 µM
COc1ccc(NC(C)=O)cc1NC(=O)CN1CCN(CC(=O)Nc2ccc(Cl)cc2)CC1		inconclusive: 3.98 µM [activator, partial curve]
Cc1nc(C)n(CC(O)COc2ccc3c(c2)CCC3)n1 (stereo not given)	inactive: -16.7%	
CC(Nc1cc(N2CCOCC2)ccc1[N+](=O)[O-])c1ccccc1 (stereo not given)	inactive: 4.3%	
O=[N+]([O-])c1cc(Br)c(O)c(/C=N/Nc2nnnn2-c2cccc3ccccc23)c1		inconclusive: 10 µM [inhibitor, partial curve]
Cc1ccc(S(=O)(=O)c2nc(S(C)(=O)=O)sc2NCC2CCCO2)cc1 (stereo not given)	inactive: -2.18%	
CC(C)C(=O)Nc1cccc(NC(=O)c2cccnc2)c1		inconclusive: 3.55 µM [activator, single point]
Cc1nn(-c2cccc(Cl)c2)c2c1C(c1cccnc1)C(C#N)=C(N)O2 (stereo not given)		inconclusive: 35.5 µM [inhibitor, single point]
Cc1nc(NC(=O)c2csc3ccccc23)sc1C		inconclusive: 7.94 µM [inhibitor, partial curve]
Cc1ccc(-c2nc(NCc3ccco3)c3ccccc3n2)cc1		inconclusive: 35.5 µM [inhibitor, single point]
CCCCC(=O)Nc1cc2nn(-c3ccc(OC)cc3)nc2cc1C	inactive: 4.12%	
CCCCNC(=O)CN1CCC2(O)CCCCC2C1c1ccccc1OC (stereo not given)	inactive: 17.3%	
CCOC(=O)c1oc2nc(CC(C)C)c3c(c2c1N)CCCC3		inconclusive: 3.55 µM [inhibitor, single point]
CC(=O)Nc1ccc(-c2cc(-c3ccccc3)nc(-c3ccccc3)n2)cc1	inactive: -22.2%	
CC(=O)Nc1ccc(S(=O)(=O)Oc2ccc(N3C(=O)C4CCCCC4C3=O)cc2)cc1 (stereo not given)		inconclusive: 7.94 µM [inhibitor, partial curve]

Compound	activity change, negative = inhibition	Potency
COC(=O)CC1C(=O)NC2CCCCC2N1C(=O)c1ccccc1 (stereo not given)	inactive: 0.313%	
O=C(c1ccc(Cn2c(=S)[nH]c3cc4c(cc3c2=O)OCO4)cc1)N1CCN(c2ncccn2)CC1		inconclusive: 35.5 µM [inhibitor, single point]
O=C(C[N+]1(CC#Cc2ccccc2)CCCCC1)c1ccccc1		inconclusive: 35.5 µM [inhibitor, single point]
O=S(=O)(c1cccc2nsnc12)N1CCN(c2ccccc2F)CC1	inactive: 2.5% [at 9.22 µM]	
Brc1cccc(-c2n[nH]c(-c3ccccc3)n2)c1		inconclusive: 0.316 µM [inhibitor, full curve, poor fit]
CCN(CC)CCNC(=O)c1ccc(NC(=O)Cc2ccccc2F)cc1		inconclusive: 35.5 µM [inhibitor, single point]
CC(=O)Nc1ccc(S(=O)(=O)N2CCN(c3nc(NC4CCCC4)c4ccccc4n3)CC2)cc1		inconclusive: 12.6 µM [inhibitor, single point]
CC1(C)SC(=Nc2ccccc2)N(S(=O)(=O)c2ccccc2)C1=O	inactive: 2.27%	
O=C(CSc1nc(-c2ccco2)cc(C(F)(F)F)n1)Nc1ccc(C(=O)N2CCCCC2)cc1		inconclusive: 3.55 µM [inhibitor, partial curve]
CN(CCCC(=O)Nc1ccncc1)S(=O)(=O)c1ccc(Cl)cc1		inconclusive: 11.2 µM [inhibitor, single point]
COc1ccc(CCNC(=O)Cc2ccc(OCc3ccccc3)c(OC)c2[N+](=O)[O-])cc1OCc1ccccc1		inconclusive: 7.08 µM [inhibitor, partial curve]
O=[N+]([O-])c1cccc(S(=O)(=O)Nc2nc3ccccc3nc2Nc2cccc(S(=O)(=O)N3CCCCC3)c2)c1		inconclusive: 8.91 µM [inhibitor, partial curve]
Cc1ccc(-n2nnnc2SCC(=O)c2c(N)n(CC(C)C)c(=O)n(C)c2=O)cc1		inconclusive: 0.447 µM [activator, partial curve]
Cc1ccc(/C=N/NC(=O)CSc2nnc(-c3ccc(Cl)cc3)n2-c2ccc(Cl)cc2)o1	inactive: 8.11%	
CCN(CC)c1ccc(C(=O)Nc2ccccc2)cc1[N+](=O)[O-]		inconclusive: 11.2 µM [inhibitor, single point]
O=C(COC(=O)CCc1nc2ccccc2n1-c1ccccc1)Nc1ccc(N2CCCCC2)cc1	inactive: -1.4%	
O=C(NCCN1C(=O)C2C3C=CC(C3)C2C1=O)Nc1ccccn1 (stereo not given)		inconclusive: 0.794 µM [activator, single point]
CCCC(=O)c1ccc(N2CCN(C(=O)c3ccccc3Br)CC2)c(F)c1		inconclusive: 22.4 µM [inhibitor, single point]
Cc1ccc(NS(=O)(=O)c2ccc(Cl)c(C(=O)O)c2)cc1S(=O)(=O)N1CCOCC1		inconclusive: 3.16 µM [inhibitor, partial curve]
CC(=O)NC1(C(Cl)(Cl)Cl)Oc2ccccc2O1		inconclusive: 35.5 µM [inhibitor, single point]
CCN(CC)S(=O)(=O)c1ccc(C(=O)NC(C)(C)C)cc1		inconclusive: 6.31 µM [activator, single point]
O=C1N=C(N2CCCC2)S/C1=C\c1cccc(Br)c1		inconclusive: 8.91 µM [activator, partial curve]

A few values from the entries so far:
Potency, CN(CCCC(=O)Nc1ccncc1)S(=O)(=O)c1ccc(Cl)cc1 reads inconclusive: 11.2 µM [inhibitor, single point]
Potency, O=C(CSc1nc(-c2ccco2)cc(C(F)(F)F)n1)Nc1ccc(C(=O)N2CCCCC2)cc1 reads inconclusive: 3.55 µM [inhibitor, partial curve]
